US20110306057A1
These are yes or no findings as the source states them, for the method shown. Binding seen in cells or lysates may run through a third protein. Some entries that bind do so weakly or less than the wild type.

Protein sequences, listed by entry. Tags and fused reporters are not part of them.
UniProt P30153: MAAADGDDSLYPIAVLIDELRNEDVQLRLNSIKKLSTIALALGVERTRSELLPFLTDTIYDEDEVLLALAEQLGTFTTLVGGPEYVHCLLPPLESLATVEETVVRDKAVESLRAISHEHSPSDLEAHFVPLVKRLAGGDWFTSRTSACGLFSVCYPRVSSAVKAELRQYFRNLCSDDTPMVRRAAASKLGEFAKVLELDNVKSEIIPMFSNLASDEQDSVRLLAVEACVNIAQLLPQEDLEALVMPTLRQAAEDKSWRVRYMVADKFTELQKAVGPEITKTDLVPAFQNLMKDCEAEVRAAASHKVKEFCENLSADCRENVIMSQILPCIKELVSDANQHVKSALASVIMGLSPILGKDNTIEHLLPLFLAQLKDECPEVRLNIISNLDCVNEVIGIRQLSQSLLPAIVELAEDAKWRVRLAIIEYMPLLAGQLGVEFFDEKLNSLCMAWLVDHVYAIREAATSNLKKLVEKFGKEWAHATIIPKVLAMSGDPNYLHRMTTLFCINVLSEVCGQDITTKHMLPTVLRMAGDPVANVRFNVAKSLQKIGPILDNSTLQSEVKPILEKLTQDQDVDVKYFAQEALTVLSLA
UniProt P03081: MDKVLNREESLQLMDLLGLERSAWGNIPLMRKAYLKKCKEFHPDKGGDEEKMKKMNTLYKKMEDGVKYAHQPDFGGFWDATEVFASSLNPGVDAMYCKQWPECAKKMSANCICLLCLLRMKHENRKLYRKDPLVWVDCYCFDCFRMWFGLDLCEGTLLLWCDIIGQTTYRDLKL

Target: FLAG-epitope tagged PP2A Aα (UniProt P30153)
Test: GST pull-down with glutathione-agarose from 293T lysates, immunoblot

Question: With “GST-tagged SV40 small t antigen (ST) (from UniProt P03081 1-174)” as the substance, how does the binding read?
Answer: binds
